## Library screen at single concentrations

By UniProt entry, the sequences of proteins in these tests, tags left out. Residues count along the entry.
UniProt A4I591, 1-473: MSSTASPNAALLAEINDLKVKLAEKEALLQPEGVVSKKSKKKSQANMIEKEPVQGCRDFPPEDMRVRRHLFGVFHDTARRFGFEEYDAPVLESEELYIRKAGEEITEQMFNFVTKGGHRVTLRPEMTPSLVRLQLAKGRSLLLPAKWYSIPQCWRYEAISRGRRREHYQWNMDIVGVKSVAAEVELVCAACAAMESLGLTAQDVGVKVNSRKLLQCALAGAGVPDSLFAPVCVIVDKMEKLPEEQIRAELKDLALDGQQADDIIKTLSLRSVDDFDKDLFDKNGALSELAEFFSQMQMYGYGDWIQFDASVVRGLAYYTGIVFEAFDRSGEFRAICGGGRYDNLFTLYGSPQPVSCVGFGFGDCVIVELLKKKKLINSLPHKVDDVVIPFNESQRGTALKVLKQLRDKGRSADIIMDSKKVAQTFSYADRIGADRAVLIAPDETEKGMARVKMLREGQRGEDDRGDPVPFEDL
UniProt P9WPC5, whole entry: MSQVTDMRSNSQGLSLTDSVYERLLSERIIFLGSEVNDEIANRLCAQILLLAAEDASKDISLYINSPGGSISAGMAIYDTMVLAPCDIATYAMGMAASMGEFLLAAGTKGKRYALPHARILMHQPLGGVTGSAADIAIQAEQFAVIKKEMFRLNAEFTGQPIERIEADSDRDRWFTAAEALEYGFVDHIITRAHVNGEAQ
UniProt P9WPC3, whole entry partner: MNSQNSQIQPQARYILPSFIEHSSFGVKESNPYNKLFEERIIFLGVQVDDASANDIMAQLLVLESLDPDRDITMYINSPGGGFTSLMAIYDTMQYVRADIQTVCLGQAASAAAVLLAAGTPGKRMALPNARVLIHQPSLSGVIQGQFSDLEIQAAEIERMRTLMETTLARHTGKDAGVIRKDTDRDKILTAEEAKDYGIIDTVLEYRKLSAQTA
UniProt Q4DA54, 1-478: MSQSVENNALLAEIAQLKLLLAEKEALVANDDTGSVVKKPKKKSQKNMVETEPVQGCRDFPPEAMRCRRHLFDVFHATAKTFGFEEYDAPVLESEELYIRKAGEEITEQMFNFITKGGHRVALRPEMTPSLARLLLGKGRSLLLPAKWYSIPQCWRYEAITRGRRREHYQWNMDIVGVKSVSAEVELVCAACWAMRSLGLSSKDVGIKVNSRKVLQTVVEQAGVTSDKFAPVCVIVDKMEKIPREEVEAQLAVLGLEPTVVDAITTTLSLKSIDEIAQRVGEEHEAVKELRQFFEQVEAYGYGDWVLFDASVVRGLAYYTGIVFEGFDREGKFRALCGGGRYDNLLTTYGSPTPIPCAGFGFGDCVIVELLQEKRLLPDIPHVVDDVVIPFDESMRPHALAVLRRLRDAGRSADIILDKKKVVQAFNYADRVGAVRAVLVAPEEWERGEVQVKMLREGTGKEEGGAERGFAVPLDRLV

From ChEMBL document CHEMBL3988442, “University of Dundee, Small-Polar-MMV Screening Library” (2021).

A: 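Assay of Toxoplasma gondii numbers, read through their beta-galactosidase reporter with a colour substrate. Compounds at 10 µM. Higher reads as fewer parasites (inferred from which compounds were picked for retests). Of about 67,000 compounds tested this way, about 260 (0.38%) reached 50% or more in at least one test.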
B: 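Whole-parasite assay of Trypanosoma brucei over 72 hours; the read-out is not stated. Concentration: 30 µM. The record gives no direction; compounds that gave an IC50 in retests scored well above the rest, so higher reads as stronger inhibition. Values scatter widely below zero; nearly all retest evidence comes from the higher of the two concentrations used. About 64,000 compounds were tested under these conditions; 1.5% (about 940) showed 50% or more at least once.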
C: 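Enzyme assay of histidyl-tRNA synthetase; the read-out is not stated. Target: Histidine-tRNA ligase, Leishmania infantum (UniProt A4I591). Tested at 30 µM. The record gives no direction; compounds that gave an IC50 in retests scored well above the rest, so higher reads as stronger inhibition. The assay is labelled LdHisRS but filed under L. infantum. About 69,000 compounds were tested under these conditions; 0.6% (about 410) showed 50% or more at least once.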
D: 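ClpP1P2, Mycobacterium tuberculosis (UniProt P9WPC5 and UniProt P9WPC3). Protease assay of ClpP1P2, read by the AMC dye that it sets free. Tested at 50 µM. Higher reads as stronger inhibition, judged from the few compounds that gave an IC50. Most other retested compounds had strongly negative values. Of about 69,000 compounds tested this way, about 10 (0.015%) reached 50% or more in at least one test.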
E: 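Histidine-tRNA ligase, Trypanosoma cruzi CL Brener (UniProt Q4DA54). Enzyme assay of histidyl-tRNA synthetase; the read-out is not stated. Compounds at 30 µM. Higher reads as stronger inhibition (inferred: compounds with an IC50 in retests scored well above the rest). Size under these conditions: about 69,000 compounds, about 31 of them at 50% or above in at least one test.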

Each number is a percent effect as filed. How 0% and 100% were set is not recorded. Most values in the screen are low, and negative values occur. This is an unselected part of the compounds tested. A dash means the value is not listed here; it may have been measured.

COc1ccccc1OCCNC(=O)CN1CCN(C)CC1C (stereo not given) gave A: 14.88%; C: 18.35%; D: -31.42%; E: 20.12%. For Cc1oncc1C(=O)N1CC[C@H]2[C@H]1CCN2Cc1ccccn1 the result was C: -5.128%; D: -9.185%; E: 0%. O=C(Cc1ccccc1)N1Cc2nccn2CC(CN2CCCC2)C1.O=C(O)C(F)(F)F (stereo not given) gave A: 6.12%; B: -6.008%. For Cn1nc(Cn2cccn2)c2c1CN(C1CCOCC1)C2 the result was C: 21.05%; D: 19.03%; E: 1.149%. With CNC(=O)c1ccc(C2CN(C(=O)c3c[nH]nc3C)CCO2)nc1 (stereo not given) the screen gave A: 12.04%; B: 6.01%; C: 19.79%; D: 2.065%; E: 6.383%. [H][C@]12CC[C@]([H])(CN(Cc3cccc(O)c3)C1)N(CCC)C2 gave A: 1.088%; B: -137.4%. Result for Cn1ccnc1-c1cccc(NC(=O)NCCN2CCOCC2)c1 was A: 11.63%; B: -6.555%; C: 20.19%; D: -2.347%; E: 0%.

For Cn1cnc(S(=O)(=O)N2CCCC2c2ccnc3nccn23)c1 (stereo not given) the result was A: 12.27%; B: -12.22%; C: -53.15%; D: -16.44%; E: -14.12%. Result for Cc1cc(C(=O)NCc2ccc(F)cc2)nc(C2CCCN2C)n1 (stereo not given) was A: 22.55%; B: -1.229%; C: 8.966%; D: 16.29%; E: 2.281%. O=C(O)C(F)(F)F.[H][C@@]12CN(Cc3ccc(OC)cc3)C[C@]1([H])[C@@H]2CC(=O)N1CCCC1 read A: -8.745%; B: -18.78%. For c1csc(CN2CC3(CCN(Cc4ccsc4)C3)C2)n1 the result was C: 25.71%; D: -5.822%; E: 1.961%. With Cc1n[nH]c(C)c1C1COCCN1C(=O)Cc1ccccc1F (stereo not given) the screen gave A: -9.397%; B: -25.27%; C: 6.024%; D: -4.203%; E: 6.098%. With COc1ncccc1CN1CC[C@H]2[C@H]1CCN2CCN(C)C the screen gave C: 17.54%; D: 10.21%; E: 3.226%. Oc1cccc(-c2cc(CC3(N(CC4CC4)CC4CC4)COC3)no2)c1 gave A: 9.445%; B: 47.41%; C: 10.81%; D: -4.733%; E: 0.4975%.

With CCNC(=O)CCN1CCC(c2cc(N3CCOCC3)nc(C)n2)CC1 the screen gave A: -7.904%; B: 44.51%; C: 17.14%; D: 1.614%; E: 0%. CCOC(=O)C(C)Nc1ccc(CCN2CCOCC2)cc1 (stereo not given) read A: 10.79%; B: 13.13%; C: -3.614%; D: -3.79%; E: 4.478%. NC(=O)CC1CCN(Cc2ccccc2OCC(F)(F)F)CC1 read A: 6.655%; B: -22.22%; C: 4.145%; D: -2.265%; E: 7.182%. For CCc1cnc(NCCCOC2CCCC2)nc1 the result was A: 11.24%; B: -55.81%; C: 6.557%; D: 12.16%; E: 2.146%. O=C(NC[C@H]1OC[C@@H](NC2CCCC2)[C@@H]1O)C1CCCC1 gave A: 5.133%; B: -49.6%; C: 14.86%; D: -10.85%; E: 0%. For CS(=O)(=O)c1ccc(NC(=O)CSc2ccc3c(c2)CCC3)cc1 the result was A: 0.05359%; B: -51.98%; C: 4.464%; D: 14.45%; E: -8.621%. Result for Cn1ccc(C(=O)N2CCCN(CCCc3ccccc3)CC2)cc1=O was A: -3.97%; B: -14.24%; C: 24.44%; D: 0.9813%; E: 4.762%.

Result for COc1ccc(CN(Cc2ccco2)Cc2[nH]cnc2C)c(OC)c1 was C: 6.711%; D: -9.32%; E: 4.857%. For CC1=Nc2c(c(=O)[nH]n2C(C)C)C(c2ccc3c(c2)n(C)c(=O)n3C)S1 (stereo not given) the result was A: -10.27%; B: -27.28%; C: 47.37%; D: 7.418%; E: 4.094%. With COc1cccc(CNc2ccc(F)c(Cl)c2)c1O the screen gave A: -19.09%; B: -14.68%; C: -5.618%; D: 29.16%; E: 4.663%. With [H][C@@]12CS(=O)(=O)C[C@]1([H])N(CC(=O)N1CCCCC1)CCN2c1ncccn1 the screen gave A: 16.74%; B: -21.05%. Cn1nnc2c1CCN(Cc1ccoc1)C2COCc1ccccc1 (stereo not given) gave C: 0%; D: -8.695%; E: 6.557%. For O=C(O)C(F)(F)F.[H][C@@]12CCN(Cc3ccc4c(c3)OCO4)C[C@]1(C(=O)N(C)C)CCO2 the result was A: 2.65%; B: -49.88%. With CC1CCN(C(=O)C(C)N2CCc3[nH]nc(C(F)(F)F)c3C2)CC1 (stereo not given) the screen gave A: 1.233%; B: -45.36%; C: 9.821%; D: 1.432%; E: 8.621%.

For [H][C@]12CCCC(OCc3cccnc3)[C@@]1([H])CN(C(=O)c1cccc(F)c1)C2 (stereo not given in full) the result was A: 5.408%; B: -10.02%.

The last 4 entries again:

| structure | A | B | C | D | E |
|---|---|---|---|---|---|
| `Cn1nnc2c1CCN(Cc1ccoc1)C2COCc1ccccc1` (stereo not given) | - | - | 0% | -8.695% | 6.557% |
| `O=C(O)C(F)(F)F.[H][C@@]12CCN(Cc3ccc4c(c3)OCO4)C[C@]1(C(=O)N(C)C)CCO2` | 2.65% | -49.88% | - | - | - |
| `CC1CCN(C(=O)C(C)N2CCc3[nH]nc(C(F)(F)F)c3C2)CC1` (stereo not given) | 1.233% | -45.36% | 9.821% | 1.432% | 8.621% |
| `[H][C@]12CCCC(OCc3cccnc3)[C@@]1([H])CN(C(=O)c1cccc(F)c1)C2` (stereo not given in full) | 5.408% | -10.02% | - | - | - |